# Test results: PMC7819943, “Rice protein-binding microarrays: a tool to detect cis-acting elements near promoter regions in rice”
# By UniProt entry, the sequences of proteins in these tests, tags left out.
# UniProt Q0JBA9, entry or part of it: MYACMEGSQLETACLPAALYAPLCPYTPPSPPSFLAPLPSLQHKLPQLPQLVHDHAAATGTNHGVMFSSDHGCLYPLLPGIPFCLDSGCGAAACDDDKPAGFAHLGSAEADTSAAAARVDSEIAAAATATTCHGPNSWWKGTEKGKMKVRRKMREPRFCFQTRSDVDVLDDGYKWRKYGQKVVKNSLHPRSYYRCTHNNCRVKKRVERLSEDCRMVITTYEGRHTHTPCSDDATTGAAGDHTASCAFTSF
# The other results are listed elsewhere or left out.
# Molecular target: OsWRKY34 (Oryza sativa, UniProt Q0JBA9 1-250)
# Experiment: protein-binding microarray (RPBM); PBS, 2% BSA, 51.3 ng/ul salmon testes DNA, 50 uM zinc acetate, 200 nM TF, 25 C, 1 h; high values mean tight binding
# Conditions: protein: recombinant; tags: N-terminal polyhistidine and DsRed monomer fusion (pET32a); label: CyDye5-dUTP incorporated in the synthesized complementary strand; 3' TTTTT single-stranded linker to array surface; dsDNA, one strand shown
# In short: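 Binding signal here means per-feature fluorescence intensity in arbitrary units. The values were read on an Axon 4000B scanner after a custom Agilent array, double-stranded by primer extension with Cy5-dUTP, was incubated with 200 nM protein at 25 °C for 1 h in PBS with 2% BSA, salmon testes DNA and 50 µM zinc acetate, then washed. The proteins were transcription factors with an N-terminal polyhistidine tag and DsRed, expressed in E. coli BL21-CodonPlus and purified on Ni–NTA.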
row,Sequence,binding signal
1,CTTTCAACTTTTACGTCACATCGTTTCAATTTCAATTAAACGGAGTCACCTAGTGCAG,8270 fluorescence intensity (a.u.)
2,AACTGCTGATTGTGATACACATGACCTGAACTCATTTTCTCGGAGTCACCTAGTGCAG,9610 fluorescence intensity (a.u.)
3,TGTTAAATACTCCATTGTTGTTCTGATGGTATTTGCAGCCCGGAGTCACCTAGTGCAG,9210 fluorescence intensity (a.u.)
4,AGGTTCGCCCATGTCAAGCTTATTTTTTCACCGGACACACCGGAGTCACCTAGTGCAG,8560 fluorescence intensity (a.u.)
5,TTTTTTCTGCATGCTTTTCGAATTATGAATGACTACATTTCGGAGTCACCTAGTGCAG,12000 fluorescence intensity (a.u.)
6,AATACCAAGTTTATTTCTCACCTGCATTTTAGATTCTCATCGGAGTCACCTAGTGCAG,9050 fluorescence intensity (a.u.)
7,AATATGCTAACTCATTTTCCGTAAGTATGTACTATATCCACGGAGTCACCTAGTGCAG,8560 fluorescence intensity (a.u.)
8,TCGCATCTTTCCATAGGTCGACAGCAAATCTACCTGCTGTCGGAGTCACCTAGTGCAG,8820 fluorescence intensity (a.u.)
9,TAGCTAACATTGGTCCCGGTTTGTATTGCTAGCTTGTTCACGGAGTCACCTAGTGCAG,8050 fluorescence intensity (a.u.)
10,TTTTACTGGAGGAATTCTATCCTTACTCATTTTTTTATATCGGAGTCACCTAGTGCAG,9400 fluorescence intensity (a.u.)
11,TATTCTATTCTGTCAGTTGACCTTATCCTGCAGACCAGCGCGGAGTCACCTAGTGCAG,8040 fluorescence intensity (a.u.)
12,CCACTACTGGAGTACTAGTCCACTTGACTACTTGTCCATACGGAGTCACCTAGTGCAG,8240 fluorescence intensity (a.u.)
13,TCATCGCCCCTTCTCTCTACCCATCCCTCTTGCCAATTTCCGGAGTCACCTAGTGCAG,9110 fluorescence intensity (a.u.)
14,TTGACGTTTATGCCAGGTGAAAAAGAAACGCGTTGACCCTCGGAGTCACCTAGTGCAG,8890 fluorescence intensity (a.u.)
15,GCCACATATTTCGTCCGTTTGAGTTTATTTTTTACATGGTCGGAGTCACCTAGTGCAG,9780 fluorescence intensity (a.u.)
16,ACGTGCCTCTTGCTTAATTTACTCTATTTTAGATCAAGTTCGGAGTCACCTAGTGCAG,9490 fluorescence intensity (a.u.)
17,TTTCCATGTTTGGCATCATCCATTGTGGGATTGTATTTTACGGAGTCACCTAGTGCAG,9440 fluorescence intensity (a.u.)
18,GCAACTGACACATGGGTCCTATTGATTTTATTATTTTTTACGGAGTCACCTAGTGCAG,9160 fluorescence intensity (a.u.)
19,CCTCTCTCTCTCTCTCTCTCTCTCTCTCTCTCTCTCTCTCCGGAGTCACCTAGTGCAG,9700 ± 931 fluorescence intensity (a.u.)
20,ATTGAGGGAGCAAACCTTTTATTTTTTGTGCGCATATTTTCGGAGTCACCTAGTGCAG,8100 fluorescence intensity (a.u.)
21,ATAATGTTAACAACCATTCTTTCAAGAACATTTTTCATCTCGGAGTCACCTAGTGCAG,8810 fluorescence intensity (a.u.)

row,Sequence,binding signal
1,CGGTCTTTGCCAAATTCCCACTCCGCTTGGCTTTCTGGCCCGGAGTCACCTAGTGCAG,8250 fluorescence intensity (a.u.)
2,AGGTGAATTTTCCATAGCAATTGCATTGAACTCATCATCACGGAGTCACCTAGTGCAG,8030 fluorescence intensity (a.u.)
3,AGTAGCTCATTGCCTGCCAATCTTCTCTTTCCCTTCTGCTCGGAGTCACCTAGTGCAG,8600 fluorescence intensity (a.u.)
4,GCCTCGACCAGCAACGCTGCCGCCATTTGCACACGCTAGCCGGAGTCACCTAGTGCAG,8490 fluorescence intensity (a.u.)
5,GATCCACTCATCTCTCCTGGCTAAGAATCAATCTCTTCTTCGGAGTCACCTAGTGCAG,8160 fluorescence intensity (a.u.)
6,ATTGCCCCTAGTTTGTATGCACCAGTTCACCAACATTTTTCGGAGTCACCTAGTGCAG,8860 fluorescence intensity (a.u.)
7,GATGGACGGCGACGGAGGCGGGGATGGAGGGGAATGGCGTCGGAGTCACCTAGTGCAG,10700 fluorescence intensity (a.u.)
8,TGGTTGTGTCTTGTTCGGTCTTGCTGTTACTCTTTTTCACCGGAGTCACCTAGTGCAG,15600 fluorescence intensity (a.u.)
9,ATTTCTTATGCATTGTGTGTTATGTGTTGCATACAAAATTCGGAGTCACCTAGTGCAG,8790 fluorescence intensity (a.u.)
10,CCCACCGGATCCGCCGCTTCCTCCGCCGCGGTGGCGCTCGCGGAGTCACCTAGTGCAG,8550 fluorescence intensity (a.u.)
11,TTGAATGAATATTTAATTATATGCTGTCATTTCTCATTTACGGAGTCACCTAGTGCAG,8330 fluorescence intensity (a.u.)
12,AATGTTGGAGTATTATTCTGTGAGGGGAGGCGGGCAATCACGGAGTCACCTAGTGCAG,13200 fluorescence intensity (a.u.)
13,GTTTGCTGCACCTCATGGCCGCCATGCATATGCAGTTCGTCGGAGTCACCTAGTGCAG,8990 fluorescence intensity (a.u.)
14,GGTAAATTATCCATATACTAACTTTCATTCGTTTGCAAGCCGGAGTCACCTAGTGCAG,9380 fluorescence intensity (a.u.)
15,AGCGTCGCTGCCATCATCGCCGTCGCGTCGCTCGTCGCCGCGGAGTCACCTAGTGCAG,8220 fluorescence intensity (a.u.)
16,TTCTTTTTTACTTTCCTGCCACTTTTGCTTAATCTATTGCCGGAGTCACCTAGTGCAG,9360 fluorescence intensity (a.u.)
17,CCTGTCATGGAGGATGTTTCCTGAAGTTTCAGAGCTGTATCGGAGTCACCTAGTGCAG,8310 fluorescence intensity (a.u.)
18,TGTACTTCAAAAATTTACTTTACCGTGTGTTTTATTTTTTCGGAGTCACCTAGTGCAG,9650 fluorescence intensity (a.u.)
19,TTATTGTTAGTTTGGCGCCCTTTGCCAGGTCCAAATTAAGCGGAGTCACCTAGTGCAG,9410 fluorescence intensity (a.u.)
20,CATCAGCTTGACCGCCTCACCTCACCACCCCAAGCTAGACCGGAGTCACCTAGTGCAG,10700 fluorescence intensity (a.u.)
21,ATCATTATGATCTACACTTTTCGTTACATTTTCTTCTATTCGGAGTCACCTAGTGCAG,11600 fluorescence intensity (a.u.)

# Reformatted: results already given
row	Sequence	binding signal
1	CTTTCAACTTTTACGTCACATCGTTTCAATTTCAATTAAACGGAGTCACCTAGTGCAG	8270 fluorescence intensity (a.u.)
7	AATATGCTAACTCATTTTCCGTAAGTATGTACTATATCCACGGAGTCACCTAGTGCAG	8560 fluorescence intensity (a.u.)
